At least one structure is not confirmed: it was looked up by name or label, or the drawing left a doubt.
System: Bacteroides thetaiotaomicron
Assay: Effect of statins on growth of B. thetaiotaomicron (FIG. 14)
Type: cell-based
Settings: statin concentration of 1 mM (FIG. 14)

With `CC[C@H](C)C(=O)O[C@H]1C[C@H](O)C=C2C=C[C@H](C)[C@H](CC[C@@H](O)C[C@@H](O)CC(=O)O)[C@H]21` [pravastatin] the “effect on the growth of Bacteroides thetaiotaomicron” value was “None of these three statins had any affect on the growth”.

— patent US20130217592A1, “ARRAYS AND METHODS COMPRISING M. SMITHII GENE PRODUCTS” (THE WASHINGTON UNIVERSITY, priority 2007, published 2013)
